Measurements reported in PubChem BioAssay AID1259405 (NCATS, 2018)
Here is a random part of about 50,000 reagents. About 4,000 of them (8%) were called active. 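Mouse siRNA library applied to hamster cells; one well for each siRNA.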 Entries without a mark were called inactive. The numbers tell different reagents against one gene apart.

Screen: 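Silenced genes that increase secreted GFP made by CHO cells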 (primary screen)
Cell system: Chinese hamster CHO-K1 ovary cells with stable secreted eGFP expression
Reagent: single siRNA against mouse genes, 0.8 pmol siRNA per well (2 µl of 400 nM stock)
Time to read-out: 3 days
Measurement: 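Per-well intracellular GFP measured by laser scanning cytometry, plus viability from ATP luminescence, each relative to plate median of non-targeting control wells, in %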
Direction: GFP, % of control: higher = more GFP per well, higher productivity; viability (ATP), % of control: higher = more viable cells (more ATP)
Hit rule: 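a knock-down is called active if GFP reaches 120% or more of non-targeting control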

| target gene | reagent | GFP, % of control | viability (ATP), % of control |
| --- | --- | --- | --- |
| Actl6b | 1 | 130 (active) | 92.5 |
| Actl6b | 2 | 75.8 | 84.9 |
| Cdc42ep2 | 1 | 78.8 | 89.6 |
| Cdc42ep2 | 2 | 92.3 | 84.2 |
| Cdc42ep2 | 3 | 93.6 | 102 |
| Ahcyl1 | 1 | 35 | 47.8 |
| Ahcyl1 | 2 | 73.4 | 80.3 |
| Cd63 | 1 | 69.3 | 45.7 |
| Cd63 | 2 | 54 | 67 |
| Cd63 | 3 | 68.6 | 67.5 |
| Cfi | 1 | 67.7 | 124 |
| Cfi | 2 | 46.1 | 50.1 |
| Ank3 | 1 | 59 | 56.1 |
| Ank3 | 2 | 57.7 | 57.7 |
| Ank3 | 3 | 69.5 | 86.6 |
| Dnajc8 | 1 | 66.2 | 80.2 |
| Dnajc8 | 2 | 103 | 77.7 |
| Dnajc8 | 3 | 91.1 | 121 |
| Arl6ip5 | 1 | 78 | 70.3 |
| Arl6ip5 | 2 | 55.9 | 51.8 |
| Arl6ip5 | 3 | 77.6 | 44.7 |
| Cln8 | 1 | 53.1 | 90.3 |
| Cln8 | 2 | 102 | 63.8 |
| Cln8 | 3 | 44.5 | 83 |
| Dera | 1 | 76.5 | 86.1 |
| Dera | 2 | 102 | 95.9 |
| Dera | 3 | 112 | 79.6 |
| Sun2 | 1 | 32.1 | 47.8 |
| Sun2 | 2 | 51.7 | 60.3 |
| Sun2 | 3 | 70.6 | 71.9 |
| Ppp1r17 | 1 | 38.1 | 52.6 |
| Ppp1r17 | 2 | 81.6 | 61.5 |
| Ppp1r17 | 3 | 71.9 | 79.2 |
| Vmn1r46 | 1 | 55.7 | 56.8 |
| Vmn1r46 | 2 | 156 (active) | 67.3 |
| Vmn1r46 | 3 | 73.2 | 82.9 |
| Nrsn2 | 1 | 35 | 61.4 |
| Nrsn2 | 2 | 84.3 | 71.4 |
| Nrsn2 | 3 | 117 | 83.7 |

Records listed above marked active:
| target gene | reagent | GFP, % of control | viability (ATP), % of control |
| --- | --- | --- | --- |
| Actl6b | 1 | 130 (active) | 92.5 |
| Vmn1r46 | 2 | 156 (active) | 67.3 |

More reagents follow.
| target gene | reagent | GFP, % of control | viability (ATP), % of control |
| --- | --- | --- | --- |
| Patl1 | 1 | 42.6 | 26.5 |
| Patl1 | 2 | 163 (active) | 141 |
| Patl1 | 3 | 84.2 | 28.8 |
| Patl1 | 4 | 81.9 | 82.8 |
| Patl1 | 5 | 81.5 | 82.8 |
| Patl1 | 6 | 163 (active) | 141 |
| Aldh2 | 1 | 74.4 | 66.3 |
| Aldh2 | 2 | 94.6 | 59.9 |
| Aldh2 | 3 | 57.5 | 65 |
| Lyset | 1 | 29.8 | 33.8 |
| Lyset | 2 | 80.7 | 50.2 |
| Lyset | 3 | 84.4 | 79.3 |
| Morc1 | 1 | 102 | 113 |
| Morc1 | 2 | 86.4 | 72.1 |
| Slamf1 | 1 | 83.2 | 51.7 |
| Slamf1 | 2 | 47.9 | 36.8 |
| Slamf1 | 3 | 79.1 | 65.4 |
| Lep | 1 | 101 | 76 |
| Lep | 2 | 94.3 | 84.1 |
| Lep | 3 | 118 | 103 |
| Msh3 | 1 | 86.3 | 106 |
| Msh3 | 2 | 184 (active) | 98 |
| Msh3 | 3 | 66.3 | 67.6 |
| Mep1b | 1 | 84 | 91.6 |
| Mep1b | 2 | 52.9 | 55.3 |
| Mep1b | 3 | 62.2 | 103 |
| Cd276 | 1 | 67.6 | 78.9 |
| Cd276 | 2 | 76.7 | 83.1 |
| Cd276 | 3 | 88.8 | 98.1 |
| Nr5a1 | 1 | 85.7 | 33 |
| Nr5a1 | 2 | 74.9 | 85 |
| Nr5a1 | 3 | 71.5 | 46.2 |
| Mllt3 | 1 | 83.2 | 73.8 |
| Mllt3 | 2 | 94.7 | 97.5 |
| Mllt3 | 3 | 44.4 | 63.6 |
| Gnao1 | 1 | 38.9 | 50.2 |
| Gnao1 | 2 | 72.3 | 81.8 |
| Gnao1 | 3 | 47.4 | 65.7 |
| Timm10 | 1 | 80.6 | 107 |
| Timm10 | 2 | 54.5 | 63.9 |
| Timm10 | 3 | 51.5 | 62.4 |
| Rbks | 1 | 58.8 | 67.8 |
| Tfcp2 | 1 | 72.1 | 80.8 |
| Tfcp2 | 2 | 38.9 | 59.8 |
| Tfcp2 | 3 | 72.9 | 91.3 |
| Zfp704 | 1 | 176 (active) | 119 |
| Zfp704 | 2 | 37.9 | 42.9 |
| Zfp704 | 3 | 68.5 | 97.1 |
| Adamts8 | 1 | 75.5 | 94.9 |
| Adamts8 | 2 | 36 | 43 |
| Adamts8 | 3 | 89.5 | 76 |
| Cdk5rap1 | 1 | 73.9 | 83.4 |
| Cdk5rap1 | 2 | 75.2 | 78.2 |
| Cdk5rap1 | 3 | 70.8 | 103 |
| Ctsll3 | 1 | 104 | 106 |
| Ctsll3 | 2 | 90.6 | 54.3 |
| Ctsll3 | 3 | 55.2 | 88.6 |
| Sim1 | 1 | 102 | 110 |
| Sim1 | 2 | 97.2 | 91.1 |
| Sim1 | 3 | 95.6 | 113 |
| Fndc5 | 1 | 107 | 97.6 |
| Fndc5 | 2 | 98.9 | 105 |
| Fndc5 | 3 | 40.3 | 68.4 |
| Dhx36 | 1 | 105 | 84.3 |
| Dhx36 | 2 | 46.8 | 48.8 |
| Dhx36 | 3 | 72 | 62.4 |
| Kcnj4 | 1 | 97.2 | 83.1 |
| Kcnj4 | 2 | 64.1 | 69.3 |
| Kcnj4 | 3 | 90.8 | 101 |
